Results are given in words; binding and its absence hold for the method and conditions named. Binding seen in cells or lysates may run through a third protein. Some results given as binding are weak or reduced against the parent protein; the word gives no strength. For part of these data: Tags and fused reporters may be left off the sequences shown. Each block holds one molecule with its values, some of them ahead of it.
How the values were obtained:
[1] = target: T1, GST-14-3-3θ fusion protein (rat) (UniProt P68255); test: pull-down; GST fusion protein-coated glutathione-agarose beads incubated overnight at 4 °C with lysates of cultured rat cortical neurons; immunoblot; only the target purified
T1 sequence: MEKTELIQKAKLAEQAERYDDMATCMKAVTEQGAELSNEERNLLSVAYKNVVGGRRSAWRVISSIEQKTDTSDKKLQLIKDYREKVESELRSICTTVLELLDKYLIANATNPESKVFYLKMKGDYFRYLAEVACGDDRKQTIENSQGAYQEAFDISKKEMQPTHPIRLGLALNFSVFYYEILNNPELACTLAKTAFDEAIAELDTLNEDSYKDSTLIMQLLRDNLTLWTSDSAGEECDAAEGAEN

Amino acid sequences for entries named in this document (tags omitted). A change or cut given only in a name is not applied to a line headed by its entry. Residues count along the entry.
UniProt Q63472: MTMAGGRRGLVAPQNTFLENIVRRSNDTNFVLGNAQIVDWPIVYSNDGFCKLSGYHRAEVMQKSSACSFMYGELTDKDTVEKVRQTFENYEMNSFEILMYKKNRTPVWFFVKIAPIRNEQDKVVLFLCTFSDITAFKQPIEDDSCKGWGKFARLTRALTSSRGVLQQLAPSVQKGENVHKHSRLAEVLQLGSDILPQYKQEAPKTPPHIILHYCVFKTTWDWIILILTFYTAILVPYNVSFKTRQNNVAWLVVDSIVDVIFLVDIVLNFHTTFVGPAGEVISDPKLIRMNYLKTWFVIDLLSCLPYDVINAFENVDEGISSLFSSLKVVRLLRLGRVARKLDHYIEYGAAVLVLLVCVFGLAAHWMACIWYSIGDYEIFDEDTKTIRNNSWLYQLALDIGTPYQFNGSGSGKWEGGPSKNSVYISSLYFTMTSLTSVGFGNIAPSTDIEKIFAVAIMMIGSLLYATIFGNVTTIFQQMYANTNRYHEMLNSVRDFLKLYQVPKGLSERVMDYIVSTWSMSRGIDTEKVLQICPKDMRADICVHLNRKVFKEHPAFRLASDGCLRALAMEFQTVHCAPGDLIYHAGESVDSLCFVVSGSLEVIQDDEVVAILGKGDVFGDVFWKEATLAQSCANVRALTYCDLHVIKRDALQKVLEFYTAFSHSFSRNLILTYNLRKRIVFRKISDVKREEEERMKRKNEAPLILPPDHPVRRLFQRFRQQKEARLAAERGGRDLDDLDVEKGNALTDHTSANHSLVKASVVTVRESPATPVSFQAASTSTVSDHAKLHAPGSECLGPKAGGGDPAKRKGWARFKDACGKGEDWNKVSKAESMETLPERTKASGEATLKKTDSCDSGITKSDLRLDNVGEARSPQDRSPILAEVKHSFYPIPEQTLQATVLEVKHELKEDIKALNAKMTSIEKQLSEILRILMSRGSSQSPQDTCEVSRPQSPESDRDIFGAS
GST-Eag1-N (PAS domain and N-linker; amino acids 1-207): residues 1-207 of Q63472
GST-Eag1-C1-B (CNBHD and proximal post-CNBHD; amino acids 561-722): residues 561-722 of Q63472
UniProt Q14999: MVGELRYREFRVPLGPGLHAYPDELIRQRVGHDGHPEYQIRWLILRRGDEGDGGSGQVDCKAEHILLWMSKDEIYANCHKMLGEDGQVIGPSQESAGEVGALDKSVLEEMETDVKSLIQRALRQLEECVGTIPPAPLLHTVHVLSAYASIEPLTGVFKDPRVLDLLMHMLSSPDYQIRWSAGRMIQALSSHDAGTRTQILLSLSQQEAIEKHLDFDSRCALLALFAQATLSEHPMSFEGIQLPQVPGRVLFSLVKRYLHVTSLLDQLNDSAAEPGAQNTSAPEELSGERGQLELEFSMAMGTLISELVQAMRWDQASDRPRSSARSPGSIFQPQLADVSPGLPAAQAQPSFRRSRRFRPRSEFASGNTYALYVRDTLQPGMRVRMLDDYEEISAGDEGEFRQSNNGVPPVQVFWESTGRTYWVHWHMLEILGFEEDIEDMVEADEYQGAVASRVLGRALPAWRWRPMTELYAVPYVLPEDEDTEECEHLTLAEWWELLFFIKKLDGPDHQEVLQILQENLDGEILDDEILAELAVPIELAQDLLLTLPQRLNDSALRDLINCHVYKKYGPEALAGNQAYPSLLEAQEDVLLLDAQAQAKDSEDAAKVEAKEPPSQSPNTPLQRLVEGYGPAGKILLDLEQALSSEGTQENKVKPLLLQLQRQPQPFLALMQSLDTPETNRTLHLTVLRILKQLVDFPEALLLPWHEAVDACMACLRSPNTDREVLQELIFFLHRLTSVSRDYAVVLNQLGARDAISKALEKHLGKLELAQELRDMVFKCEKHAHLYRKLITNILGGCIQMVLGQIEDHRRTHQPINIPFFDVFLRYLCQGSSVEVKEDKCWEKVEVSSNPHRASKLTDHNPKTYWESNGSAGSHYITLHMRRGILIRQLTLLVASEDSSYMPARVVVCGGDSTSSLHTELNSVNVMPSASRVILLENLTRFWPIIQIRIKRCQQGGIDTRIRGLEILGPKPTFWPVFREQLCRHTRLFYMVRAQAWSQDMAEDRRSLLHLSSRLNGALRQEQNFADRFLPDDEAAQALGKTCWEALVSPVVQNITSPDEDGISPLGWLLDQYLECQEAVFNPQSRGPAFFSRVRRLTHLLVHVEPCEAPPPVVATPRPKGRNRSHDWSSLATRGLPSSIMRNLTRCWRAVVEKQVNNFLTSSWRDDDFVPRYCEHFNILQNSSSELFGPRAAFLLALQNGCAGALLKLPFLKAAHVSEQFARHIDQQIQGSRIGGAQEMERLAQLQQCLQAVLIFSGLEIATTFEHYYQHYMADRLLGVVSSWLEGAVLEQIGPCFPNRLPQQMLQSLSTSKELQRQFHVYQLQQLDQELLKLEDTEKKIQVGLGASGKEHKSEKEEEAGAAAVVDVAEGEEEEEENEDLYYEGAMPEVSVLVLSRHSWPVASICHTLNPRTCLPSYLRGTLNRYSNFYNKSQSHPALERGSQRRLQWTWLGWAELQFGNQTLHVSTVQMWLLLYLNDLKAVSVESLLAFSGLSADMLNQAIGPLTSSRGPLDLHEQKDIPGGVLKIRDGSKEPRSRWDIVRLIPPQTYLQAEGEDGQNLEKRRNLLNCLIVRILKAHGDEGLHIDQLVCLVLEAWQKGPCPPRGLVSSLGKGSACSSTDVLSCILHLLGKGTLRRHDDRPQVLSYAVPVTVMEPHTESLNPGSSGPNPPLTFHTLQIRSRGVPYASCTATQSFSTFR
UniProt D3ZEF4: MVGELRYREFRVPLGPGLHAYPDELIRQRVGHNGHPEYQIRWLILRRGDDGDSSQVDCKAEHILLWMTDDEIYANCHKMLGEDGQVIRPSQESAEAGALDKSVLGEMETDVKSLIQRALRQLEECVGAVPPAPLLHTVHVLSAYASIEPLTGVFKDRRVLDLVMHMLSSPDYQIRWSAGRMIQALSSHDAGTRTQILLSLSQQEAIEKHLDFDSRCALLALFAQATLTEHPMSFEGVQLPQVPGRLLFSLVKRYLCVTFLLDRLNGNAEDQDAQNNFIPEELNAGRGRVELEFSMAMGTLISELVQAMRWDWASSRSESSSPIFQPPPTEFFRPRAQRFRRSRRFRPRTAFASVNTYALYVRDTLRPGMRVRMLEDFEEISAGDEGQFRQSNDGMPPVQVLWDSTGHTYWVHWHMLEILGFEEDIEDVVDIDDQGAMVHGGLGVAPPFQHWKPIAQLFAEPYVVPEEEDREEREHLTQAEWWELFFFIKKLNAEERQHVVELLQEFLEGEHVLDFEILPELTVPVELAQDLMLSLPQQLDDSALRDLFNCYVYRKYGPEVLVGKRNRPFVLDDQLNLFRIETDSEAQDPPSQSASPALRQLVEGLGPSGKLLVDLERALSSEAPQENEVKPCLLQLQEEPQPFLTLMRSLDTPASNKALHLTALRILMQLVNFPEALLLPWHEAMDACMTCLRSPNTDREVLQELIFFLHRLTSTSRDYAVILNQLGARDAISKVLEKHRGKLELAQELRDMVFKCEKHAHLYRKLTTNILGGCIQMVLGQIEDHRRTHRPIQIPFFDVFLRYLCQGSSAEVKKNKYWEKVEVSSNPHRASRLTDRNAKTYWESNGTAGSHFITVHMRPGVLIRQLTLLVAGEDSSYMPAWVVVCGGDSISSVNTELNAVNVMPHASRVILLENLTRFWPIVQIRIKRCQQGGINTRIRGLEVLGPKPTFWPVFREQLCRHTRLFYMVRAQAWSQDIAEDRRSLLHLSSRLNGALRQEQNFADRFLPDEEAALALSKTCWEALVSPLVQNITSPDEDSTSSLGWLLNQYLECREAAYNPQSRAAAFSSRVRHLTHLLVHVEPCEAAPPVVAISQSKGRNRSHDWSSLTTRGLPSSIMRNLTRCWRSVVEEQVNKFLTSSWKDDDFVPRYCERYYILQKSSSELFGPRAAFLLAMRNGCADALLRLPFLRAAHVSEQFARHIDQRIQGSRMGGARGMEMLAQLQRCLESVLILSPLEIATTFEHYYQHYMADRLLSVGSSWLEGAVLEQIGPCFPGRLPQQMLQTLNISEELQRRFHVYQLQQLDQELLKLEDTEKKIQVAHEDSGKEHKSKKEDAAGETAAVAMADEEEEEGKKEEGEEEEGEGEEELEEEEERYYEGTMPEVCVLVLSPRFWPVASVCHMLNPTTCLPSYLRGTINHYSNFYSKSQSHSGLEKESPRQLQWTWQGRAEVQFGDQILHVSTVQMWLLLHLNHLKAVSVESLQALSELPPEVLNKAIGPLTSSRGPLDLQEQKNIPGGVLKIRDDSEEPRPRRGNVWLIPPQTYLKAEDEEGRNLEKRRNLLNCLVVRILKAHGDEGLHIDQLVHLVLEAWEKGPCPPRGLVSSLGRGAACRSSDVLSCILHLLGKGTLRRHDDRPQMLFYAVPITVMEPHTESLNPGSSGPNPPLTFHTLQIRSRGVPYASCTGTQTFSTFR

[2] = target: GST-Eag1-C1-B (CNBHD and proximal post-CNBHD; amino acids 561-722) (rat) (UniProt Q63472); test: as above
[3] = target: T2, Myc-14-3-3θ (rat) (UniProt P68255); test: co-IP; HEK293T cells over-expressing Myc-14-3-3θ and Eag1; IP with anti-Myc antibody; immunoblot
T2 sequence: T1 sequence

[4] = target: Myc-tagged Cul7 (UniProt Q14999); test: co-IP; HEK293T cells co-expressing Myc-Cul7, Eag1 and YFP-R18 mutant or YFP-difopein; 10 μM MG132 for 12 h; IP with anti-Cul7 antibody, buffer A with 1% Triton X-100, 16 h at 4 °C; immunoblot
[5] = target: GST-Eag1-C1-B (CNBHD and proximal post-CNBHD; amino acids 561-722) (rat) (UniProt Q63472); test: pull-down; GST fusion protein-coated glutathione-agarose beads (6-8 μg) incubated overnight at 4 °C with lysates of HEK293T cells expressing Myc-Cul7, alone or co-expressed with YFP-R18 mutant or YFP-difopein; immunoblot with anti-Cul7 and anti-GST; only the target purified
[6] = target: GST-Eag1-N (PAS domain and N-linker; amino acids 1-207) (rat) (UniProt Q63472); test: as above

Molecule: Myc-tagged Cul7 (from UniProt Q14999 1-1698)
binding [5]: binds | binding [6]: binds

B1: endogenous 14-3-3θ in cultured cortical neurons (protein, UniProt P68255 1-245)
chain: T1 sequence
binding [2]: binds

Now from value to molecule:

binding [1]: binds
Molecule: endogenous Eag1 in cultured cortical neurons (from UniProt Q63472 1-962)

binding [2]: binds | binding [1]: binds
Molecule: endogenous Cul7 in cultured cortical neurons (from UniProt D3ZEF4 1-1692)

binding [3]: binds
Molecule: endogenous Cul7 in HEK293T cells (from UniProt Q14999 1-1698)

binding [3]: binds | binding [4]: binds
Molecule: Eag1 (KV10.1; KCNH1) potassium channel, rat, over-expressed (from UniProt Q63472 1-962)
